Paper PMC4466649
No constants are given. Whether binding was seen depends on the method and setting. Binding seen in cells or lysates may run through a third protein.

The chains behind the UniProt entries cited, without tags or fusion partners. Residues count along the entry.
UniProt P33527: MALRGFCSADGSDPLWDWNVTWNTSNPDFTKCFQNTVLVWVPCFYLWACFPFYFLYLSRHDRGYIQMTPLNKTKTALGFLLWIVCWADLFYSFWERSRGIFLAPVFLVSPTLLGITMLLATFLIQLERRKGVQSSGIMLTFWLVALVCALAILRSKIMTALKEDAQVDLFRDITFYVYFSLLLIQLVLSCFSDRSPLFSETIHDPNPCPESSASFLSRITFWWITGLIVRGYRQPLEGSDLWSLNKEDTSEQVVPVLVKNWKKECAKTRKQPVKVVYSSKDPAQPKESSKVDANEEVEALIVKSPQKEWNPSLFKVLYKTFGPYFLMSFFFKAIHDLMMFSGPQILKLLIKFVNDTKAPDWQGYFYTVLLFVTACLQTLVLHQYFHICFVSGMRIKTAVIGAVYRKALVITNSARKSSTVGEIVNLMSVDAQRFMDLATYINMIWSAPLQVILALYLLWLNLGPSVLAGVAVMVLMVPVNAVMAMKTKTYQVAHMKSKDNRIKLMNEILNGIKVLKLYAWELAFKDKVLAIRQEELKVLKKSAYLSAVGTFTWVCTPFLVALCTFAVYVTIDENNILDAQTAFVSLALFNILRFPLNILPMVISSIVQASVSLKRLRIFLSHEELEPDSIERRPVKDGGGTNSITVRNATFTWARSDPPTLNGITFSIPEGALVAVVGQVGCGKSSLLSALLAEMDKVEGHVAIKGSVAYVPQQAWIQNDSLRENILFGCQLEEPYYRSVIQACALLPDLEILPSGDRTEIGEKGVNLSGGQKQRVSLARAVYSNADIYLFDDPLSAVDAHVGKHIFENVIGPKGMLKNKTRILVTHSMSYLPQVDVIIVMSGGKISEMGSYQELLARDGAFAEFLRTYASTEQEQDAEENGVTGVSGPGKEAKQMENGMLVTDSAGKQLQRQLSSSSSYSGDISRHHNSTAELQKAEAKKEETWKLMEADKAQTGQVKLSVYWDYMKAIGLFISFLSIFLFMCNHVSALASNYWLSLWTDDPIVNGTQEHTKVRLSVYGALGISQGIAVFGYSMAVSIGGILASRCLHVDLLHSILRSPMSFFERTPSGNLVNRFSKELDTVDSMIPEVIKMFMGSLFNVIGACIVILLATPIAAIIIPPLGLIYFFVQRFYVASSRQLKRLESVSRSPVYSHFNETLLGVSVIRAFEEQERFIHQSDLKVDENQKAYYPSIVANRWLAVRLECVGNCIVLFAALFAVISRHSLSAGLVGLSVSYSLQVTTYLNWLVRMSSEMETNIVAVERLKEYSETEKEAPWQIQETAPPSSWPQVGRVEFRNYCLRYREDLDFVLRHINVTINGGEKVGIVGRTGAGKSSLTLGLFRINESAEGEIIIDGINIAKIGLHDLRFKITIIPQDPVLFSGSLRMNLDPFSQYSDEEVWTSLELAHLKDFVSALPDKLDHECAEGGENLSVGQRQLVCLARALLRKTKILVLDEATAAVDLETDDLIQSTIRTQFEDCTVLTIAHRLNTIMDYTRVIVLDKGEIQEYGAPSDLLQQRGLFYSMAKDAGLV
UniProt O43570, residues 25-354: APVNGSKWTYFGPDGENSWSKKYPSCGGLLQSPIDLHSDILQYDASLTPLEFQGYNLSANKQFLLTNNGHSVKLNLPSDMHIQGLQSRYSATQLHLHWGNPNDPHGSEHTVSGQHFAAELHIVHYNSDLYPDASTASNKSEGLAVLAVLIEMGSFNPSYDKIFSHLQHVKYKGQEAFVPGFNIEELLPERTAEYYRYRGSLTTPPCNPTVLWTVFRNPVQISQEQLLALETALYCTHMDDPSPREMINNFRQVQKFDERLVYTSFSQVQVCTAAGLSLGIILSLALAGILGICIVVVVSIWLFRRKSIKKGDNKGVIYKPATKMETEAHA

Target: multidrug resistance related protein 1 (human (endogenous in HT29/dx)) (UniProt P33527)
Assay: co-IP; biotinylated plasma membrane-derived extracts of HT29 and HT29/dx cells; 100 ug of proteins immunoprecipitated with anti-Pgp or anti-MRP1 antibodies on protein A and protein G magnetic beads; immunoblotted with anti-CAXII, anti-CAIX, anti-Pgp or anti-MRP1

binding: no binding
Substance: carbonic anhydrase type XII (from UniProt O43570 25-354) (enzyme)
